# Assay results: paper PMC12040169 (PLOS Biology, 2025)
# Some of the results follow.
# Test system: T1, CTL2-GFP (C. trachomatis L2/434/Bu, GFP-expressing)
# T1 construct: L2/434/Bu, GFP-expressing
# Parameters: species or system HeLa; Intracellular C. trachomatis growth in HeLa cells, bulk GFP fluorescence relative to DMSO
# Details: bulk GFP, single well; 28.5 h, 10 µM; inhibitor
row,Structure (SMILES),% of control remaining
1,Cc1cc(C(=O)Nc2nncs2)c2ccc(F)cc2n1 [CBK297738],130.36%
2,Cc1nc(C)n(CC2CCCN(Cc3nc4ccccc4o3)C2)n1 (centres unmarked) [CBK305828],118.131%
3,COc1ccc(NC(=O)CS(=O)(=O)Cc2ccccc2)c([N+](=O)[O-])c1 [CBK266748],127.584%
4,Cc1cc(C)n(C(C)CNC(=O)C(C)n2ccnc2)n1 (centres unmarked) [CBK282049],101.821%
5,O=C(c1cscn1)N1CCC(Cc2ccccc2)CC1 [CBK200188],58.339%
6,CCc1cc(C(=O)NC(CCn2ccnc2)c2ccccc2)cc(=O)[nH]1 (centres unmarked) [CBK306679],107.715%
7,N=c1n(CC(=O)c2ccc(-c3ccccc3)cc2)c2ccccc2n1Cc1ccccc1 [CBK262128B],95.7583%
8,O=C(CSc1nc2ccccc2nc1N1CCCC1)N1CCN(c2ccccc2)CC1 [CBK293977],154.058%
9,CC(=O)c1ccc(N2CCN(S(=O)(=O)c3ccc(O)c(C(=O)O)c3)CC2)cc1 [CBK296961],143.998%
10,Cc1cc(-c2nnc(NCc3ccnn3C)o2)c(C)o1 [CBK306446],117.849%
11,O=C(O)c1ccc2c(c1)c(C(C(=O)O)N1CCCC1)cn2Cc1ccccc1 (centres unmarked) [CBK286633],88.4183%
12,COc1ccc(CN2CCC(N3CCN(c4ccccc4F)CC3)CC2)cc1OCc1ccccc1 [CBK264720G],127.117%
13,O=C1C[C@H]2[C@H](CC3(SCCS3)[C@@H]2CO)O1 [CBK006615],122.872%
14,CC1=C[C@@H](CO)[C@H](C(C)C)C[C@H]1Cc1nnc(Cc2c[nH]c3ccccc23)o1 [CBK289223],117.949%
15,Fc1cc(Br)ccc1COc1cccnc1Cl [CBK161281],119.736%
16,NC1=C2NN(c3ccc(Cl)cc3Cl)N=C2N(c2ccccc2)N1 [CBK107773],61.8957%
17,Fc1cccc(-c2nccnc2NCCc2ccncc2)c1 [CBK036763],171.914%
18,CC(C)[C@H](NC(=O)c1cc2cc(Cl)ccc2n1C)C(=O)N1CCC(C(=O)O)CC1 [CBK286771],102.119%
19,CCC1CCCCN1S(=O)(=O)c1cccc2c(S(=O)(=O)N3CCCCC3CC)cccc12 (centres unmarked) [CBK262073],119.28%
20,O=C1Nc2ccc(Br)cc2C(=O)N2CCNC[C@H]12 [CBK289583],140.971%
21,CCOC(=O)CN1CCCN(c2ccnc(OC3CCCCC3)n2)CC1 [CBK083864],129.233%
22,Cc1ccc(NCC2CCN(c3cc(=O)n4oc(C)cc4n3)C2)nc1 (centres unmarked) [CBK305827],135.527%
23,CCCn1cnnc1C(C)NC(=O)N(C)Cc1nc2cccc(C)c2[nH]1 (centres unmarked) [CBK307551],105.938%
24,c1ccc(Oc2nc3ccccc3n3cnnc23)cc1 [CBK287945],168.111%
25,CCOC(=O)c1cnc2ccc(OC)cc2c1NCCN1CCOCC1 [CBK304199],107.845%
26,CCn1c(Cc2ccccc2)nnc1SCC(=O)Nc1cc(Cl)ccc1O [CBK268689],91.5718%
27,Cc1nccn1CCCNC(=O)c1cccc(N2CCCCC2)c1 [CBK281646],118.268%

# Part of the list above in order of formula weight, smallest number first:
row,Structure (SMILES),% of control remaining
20,O=C1Nc2ccc(Br)cc2C(=O)N2CCNC[C@H]12 [CBK289583],140.971%
15,Fc1cc(Br)ccc1COc1cccnc1Cl [CBK161281],119.736%
23,CCCn1cnnc1C(C)NC(=O)N(C)Cc1nc2cccc(C)c2[nH]1 (centres unmarked) [CBK307551],105.938%

# The listing continues:

row,Structure (SMILES),% of control remaining
1,OCCN1CCN(Cc2cc(Br)cs2)CC1 [CBK261758],100%
2,Cc1oc2nc(SCC(=O)NCc3cccnc3)nc(N)c2c1C [CBK266178],113.183%
3,Cc1nc(C)c(C(=O)N2CCC(c3cc4cnccc4[nH]3)CC2)s1 [CBK283432],92.8899%
4,O=C(c1cnn(-c2ccccc2)c1)N1CCc2[nH]c3ccccc3c2C1 [CBK281853],150.918%
5,CCCN(CC(=O)NCc1ccco1)Cc1nnc(-c2ccco2)o1 [CBK305302],132.865%
6,O=S(=O)(CCc1ccccc1)N1CCCn2nc(-c3ccncc3)cc2C1 [CBK288608],103.186%
7,Cn1cc(Cl)c(C2CCCCCN2C(=O)c2ccco2)n1 (centres unmarked) [CBK285105],136.138%
8,CCc1ccc(CNC(=O)Cn2nnc(-c3ccc(CNCCc4ccc(OC)c(OC)c4)cc3)n2)cc1 [CBK155008T],137.57%
9,Cc1n[nH]c2c1C(c1ccc(C(=O)O)cc1)C1=C(COC1=O)N2 (centres unmarked) [CBK286546],125.408%
10,N#Cc1ccc(OCC(=O)Nc2cccnc2-n2cncn2)cc1 [CBK306004],163.978%
11,COc1ccccc1NC(=O)NCCC1SC(NC2CCCCCC2)=NC1=O (centres unmarked) [CBK067473],111.519%
12,O=S(=O)(NCc1cccc(F)c1F)c1cc2c(N3CCNCC3)nccc2s1 [CBK047588C],99.6666%
13,c1csc(-c2nn3c(Cn4nnc5ccccc54)nnc3s2)c1 [CBK268204],128.435%
14,COc1ccc(CCCC(=O)NCc2ccc(OC3CCNCC3)cc2)cc1OC [CBK028428T],101.114%
15,COCCc1noc(CC2CCN(c3ncc(C#N)cc3F)CC2)n1 [CBK304153],92.2402%
16,CC(Cc1ccsc1)NS(=O)(=O)c1cccc(C(=O)N2CCCC2)c1 (centres unmarked) [CBK306923],141.034%
17,O=C(NC(C(=O)N/N=C/c1cccs1)c1n[nH]c(=O)c2ccccc12)c1ccccc1 (centres unmarked) [CBK261250],89.7075%
18,Nc1ncc(-c2cc(C(F)(F)F)cc(C(F)(F)F)c2)nc1NCCCO [CBK063546],141.391%
19,CC1=NC2c3ccsc3C=CC2S1 (centres unmarked) [CBK008720],112.156%
20,CC(=O)NCC(=O)Nc1cnc(-c2cccc(C(F)(F)F)c2)c(-c2cccnc2)n1 [CBK036809],113.944%
21,CCC1CCCCN1C(=O)c1cc2ccccc2s1 (centres unmarked) [CBK074211],163.734%
22,Cc1ccc(S(=O)(=O)Nc2ccccc2CNc2ccccn2)cc1 [CBK264198],102.095%
23,Cc1cc2nc3c(nc2cc1C)CCNCC3 [CBK012302],105.605%
24,COc1cc(/C=C2/SC(=S)N(CCC(=O)N3CCN(C)CC3)C2=O)cc(OC)c1OC [CBK263656],116.358%
25,COc1ccc(C(C)C)cc1-c1cn2ccnc2c(Nc2ccc(N3CCOCC3)cc2)n1 [CBK037338],135.272%
26,Cn1c(=O)n(CC(=O)NCc2ccc(F)cc2)c2cccnc21 [CBK283908],109.591%
27,CCn1c2cc(C)sc2c2cnn(CCN3CCCC3)c(=O)c21 [CBK284151],124.791%

# Looked up above.
# Entry for Cc1nc(C)c(C(=O)N2CCC(c3cc4cnccc4[nH]3)CC2)s1 [CBK283432] under % of control remaining: 92.8899%
# Entry for Cn1c(=O)n(CC(=O)NCc2ccc(F)cc2)c2cccnc21 [CBK283908] under % of control remaining: 109.591%

# More structures follow:

row,Structure (SMILES),% of control remaining
1,Cc1ccc(C2=CCN(CC(=O)NCc3ccco3)CC2)o1 [CBK283632],82.1941%
2,Cc1ccc(CNC(=O)COc2ccc(S(=O)(=O)N3CCOCC3)cc2)cc1 [CBK269816],124.3%
3,CCCCc1ccc(-c2nc(NC(=O)NCC)cc3cccnc23)cc1 [CBK081231],83.5298%
4,CCc1ccc(OCc2nnc(SCC(=O)NCCCC(=O)O)n2CC(C)C)cc1 [CBK295321],153.562%
5,O=C(O)c1cccc(Cn2c(C3CC3)n[nH]c2=S)c1 [CBK288401],132.286%
6,CCOC(=O)CCSc1c(CC)c(C)nc2ccccc12 [CBK153457T],107.215%
7,CCn1cc(Cl)c(C(=O)NC2CCN(c3nc(C)cc(=O)[nH]3)CC2)n1 [CBK304614],102.1%
8,FC(F)(F)c1nc2ccccc2nc1Sc1ccccn1 [CBK093781],103.477%
9,Cn1ccnc1C1(O)CCN(C(=O)c2ccc(F)cc2)CC1 [CBK283541],91.9993%
10,Cc1noc(COc2ccc(OCc3nc(C)no3)cc2)n1 [CBK261364],100%
11,O=C(O)COCC(=O)N[C@H]1CCN2C(=O)c3ccc(Cl)cc3NC(=O)[C@H]12 [CBK289342],118.242%
12,CC(=O)Nc1ccc(S(=O)(=O)Nc2ccc(-c3csc(C)n3)cc2)cc1 [CBK266261],147.423%
13,Cc1ccc(OCc2cccc3nsnc23)cc1[N+](=O)[O-] [CBK266063],142.14%
14,Cc1oc(-c2ccccc2)cc1C(=O)Nc1ccccc1N1CCCNCC1 [CBK038940T],123.565%
15,c1cncc(C(N2CCOCC2)N2CCOCC2)c1 [CBK260999],116.372%
16,CCCCNC(=O)CCn1c(=O)[nH]c2ccccc2c1=O [CBK287824],117.95%
17,O=C(OCc1csc2ccc(Cl)cc12)N1CCOCC1 [CBK200164],106.378%
18,COc1ccc(C(C)C)cc1-c1nccnc1NCc1ccco1 [CBK036672],185.371%
19,Cc1nn(C)c(C)c1-c1ccc(=O)n(Cc2ccc(F)cc2)n1 [CBK282258],106.859%
20,COc1cccc2c(O)cnnc12 [CBK026139],117.688%
21,Cc1cc(C(=O)O)ccc1-c1ccc(/C=N/n2cnnc2)o1 [CBK264713],120.706%
22,CC1CN(S(=O)(=O)c2ccc3c(c2)C(=O)c2cc(S(=O)(=O)N4CC(C)OC(C)C4)ccc2-3)CC(C)O1 (centres unmarked) [CBK263355],100%
23,O=C(O)CCC(=O)N1CCN(c2ccc(C(=O)c3ccc(F)cc3)cc2)CC1 [CBK269119],108.842%
24,COc1ccc([N+](=O)[O-])cc1NC(=O)C1C2CCC(C2=C(C)C)C1C(=O)O (centres unmarked) [CBK263686],103.683%
25,O=C(c1cccc(Cn2cccn2)c1)N1CCc2sccc2C1c1ccccc1 (centres unmarked) [CBK285552],105.024%
26,COc1cccc(/C=N/NC(=O)CSc2nnc(C)n2-c2ccccc2)c1O [CBK262758],100%
